# This is one part of the list. Further columns of the screen follow, without active or inactive calls. Most of these compounds were active or inconclusive in the main read-out, so they are no random draw. Words in brackets tell the shape of the fitted curve; partial curves, single points and poor fits give uncertain potencies.
# Experiment: qHTS Assay to Find Inhibitors of Chronic Active B-Cell Receptor Signaling
# Details: ABC-DLBCL IkBa-CBG/CBR reporter, luminescence ratio (green luciferase fused to IkBa over red control in TMD8 lymphoma cells), 4 h
# How it was run: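 Compounds up to 46 uM were incubated four hours with TMD8 cells whose green CBG68 luciferase is fused to IkappaBalpha; red CBR luminescence normalised the signal, and concentration-effect curves were fitted to fusion, red and ratio data.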
# [1] = measured here: CBR red luminescence, cell number
# [2] = measured here: IkBa-CBG green luminescence
SMILES,AC50 [1],AC50 [2]
O=C(CSc1ncnc2c1nnn2Cc1ccccc1)NC1CCCC1,"2.24 µM [falling, partial curve, poor fit]",–
COc1cc2c(cc1OC)-c1cc(NC3CCCC3)nc(=O)n1CC2,–,"12.6 µM [falling, partial curve, poor fit]"
O=C(NCc1cc2ccccc2[nH]1)c1ccccc1F,"12.6 µM [falling, partial curve]",–
O=C(CCc1ccccc1)N/N=C/c1cc(Br)ccc1O,"2.91 µM [rising, full curve, poor fit]",–
Cc1cc(C)c2c(c1)/C(=N/NC(=O)c1cc(C)oc1C)CCC2,"2.06 µM [falling, partial curve]",–
COCC(C)NC(=O)c1cc(-c2cccc(OC)c2)on1 (stereo not given),"4.47 µM [falling, partial curve]","31.6 µM [rising, partial curve, poor fit]"
Cc1ccc(NC(=O)C(=O)Nc2ccc(C)cn2)nc1,"0.794 µM [falling, full curve]",–
CC1=NN(C(=O)c2ccco2)C(O)(c2ccccc2)C1 (stereo not given),"31.6 µM [falling, single point]",–
CCC1=C(OC(=O)N(CC)CC)N2C(=O)OC(=NCC3CC3)[C@]2(Cc2ccccc2)[C@H]2C1=CC[C@H]1C(=O)N(c3ccccc3)C(=O)[C@H]12,"35.5 µM [falling, single point]",–
CC(=O)N1N=C2/C(=C/c3ccccc3)CCCC2C1c1ccccc1 (stereo not given),"15.8 µM [rising, single point]",–
CCOC(=O)CN1C(=O)S/C(=C\c2ccc3c(c2)OCO3)C1=O,"11.2 µM [rising, single point]",–
O=C(NCCc1ccccc1)c1cnc(Cl)c(Cl)c1,"28.2 µM [falling, single point]","14.1 µM [rising, single point]"
COCC(=O)Nc1ccc(S(=O)(=O)Nc2ncccn2)cc1,"6.51 µM [rising, single point]",–
Clc1ccc(C2=Nn3c(nnc3-c3cc(-c4ccccc4)n[nH]3)SC2)cc1,–,"2.06 µM [falling, full curve]"
COc1cc2c(cc1NC(=O)c1cncc(Br)c1)oc1ccccc12,"0.0231 µM [rising, full curve, poor fit]",–
O=c1[nH]c(-c2cccs2)nc2ccccc12,"5.8 µM [rising, single point]",–
Cc1nc(-c2ccccn2)sc1C(=O)Nc1ccc(F)cc1F,"0.891 µM [rising, partial curve, poor fit]",–
CCC(=O)N(Cc1ccco1)c1nc(-c2ccc(OC)cc2)cs1,"1.84 µM [rising, partial curve, poor fit]",–

# Compounds shown so far that have fluorine:
SMILES,AC50 [1],AC50 [2]
O=C(NCc1cc2ccccc2[nH]1)c1ccccc1F,"12.6 µM [falling, partial curve]",–
Cc1nc(-c2ccccn2)sc1C(=O)Nc1ccc(F)cc1F,"0.891 µM [rising, partial curve, poor fit]",–

# — PubChem BioAssay AID493014 (National Center for Advancing Translational Sciences (NCATS), 2011)
